Measurements taken from the supplement of paper PMC6411743.
± gives the standard deviation of the averaged measurements. This is a selection; strong and weak results do not stand in their true shares. Most entries show no effect beyond the scatter of the controls.

Chains of the proteins cited; added tags and fusions are not shown. Lines headed by an entry give the natural chain unless they say otherwise; changes in a name come on top.
UniProt Q96I24: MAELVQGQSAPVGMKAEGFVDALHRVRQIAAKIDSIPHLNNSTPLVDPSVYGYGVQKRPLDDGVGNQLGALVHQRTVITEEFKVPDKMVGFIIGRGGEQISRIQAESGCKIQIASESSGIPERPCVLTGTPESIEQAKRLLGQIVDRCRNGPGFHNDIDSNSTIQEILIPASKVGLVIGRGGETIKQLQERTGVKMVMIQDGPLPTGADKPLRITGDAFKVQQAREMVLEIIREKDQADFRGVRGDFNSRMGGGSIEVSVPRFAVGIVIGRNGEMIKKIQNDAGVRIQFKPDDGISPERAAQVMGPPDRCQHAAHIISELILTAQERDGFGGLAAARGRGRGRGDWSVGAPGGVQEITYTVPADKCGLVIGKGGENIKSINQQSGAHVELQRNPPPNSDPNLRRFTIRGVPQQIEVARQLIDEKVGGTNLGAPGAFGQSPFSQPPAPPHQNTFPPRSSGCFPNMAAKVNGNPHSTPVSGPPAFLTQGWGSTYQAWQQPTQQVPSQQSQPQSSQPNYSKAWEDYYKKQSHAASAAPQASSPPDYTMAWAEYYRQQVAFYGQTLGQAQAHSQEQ
UniProt Q96N64: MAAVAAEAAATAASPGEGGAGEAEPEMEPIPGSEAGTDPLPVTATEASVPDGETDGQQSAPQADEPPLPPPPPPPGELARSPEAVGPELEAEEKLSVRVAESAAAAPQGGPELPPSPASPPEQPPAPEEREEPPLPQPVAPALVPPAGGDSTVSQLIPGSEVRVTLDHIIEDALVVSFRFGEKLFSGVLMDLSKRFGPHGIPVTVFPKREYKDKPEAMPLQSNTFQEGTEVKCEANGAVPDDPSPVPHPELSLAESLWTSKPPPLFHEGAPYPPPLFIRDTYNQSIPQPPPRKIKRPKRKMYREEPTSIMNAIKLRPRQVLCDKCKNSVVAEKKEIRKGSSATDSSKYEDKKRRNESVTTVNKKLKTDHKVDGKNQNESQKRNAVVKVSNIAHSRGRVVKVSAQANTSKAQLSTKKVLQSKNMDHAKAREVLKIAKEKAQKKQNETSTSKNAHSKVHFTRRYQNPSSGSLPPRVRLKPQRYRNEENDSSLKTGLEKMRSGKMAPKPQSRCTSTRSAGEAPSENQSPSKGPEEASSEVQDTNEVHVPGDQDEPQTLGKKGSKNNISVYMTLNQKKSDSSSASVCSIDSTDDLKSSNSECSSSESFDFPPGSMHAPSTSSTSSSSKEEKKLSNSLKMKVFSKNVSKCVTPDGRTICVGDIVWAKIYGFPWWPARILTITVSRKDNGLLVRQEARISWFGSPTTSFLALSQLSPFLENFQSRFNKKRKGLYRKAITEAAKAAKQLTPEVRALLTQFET
UniProt Q969S3: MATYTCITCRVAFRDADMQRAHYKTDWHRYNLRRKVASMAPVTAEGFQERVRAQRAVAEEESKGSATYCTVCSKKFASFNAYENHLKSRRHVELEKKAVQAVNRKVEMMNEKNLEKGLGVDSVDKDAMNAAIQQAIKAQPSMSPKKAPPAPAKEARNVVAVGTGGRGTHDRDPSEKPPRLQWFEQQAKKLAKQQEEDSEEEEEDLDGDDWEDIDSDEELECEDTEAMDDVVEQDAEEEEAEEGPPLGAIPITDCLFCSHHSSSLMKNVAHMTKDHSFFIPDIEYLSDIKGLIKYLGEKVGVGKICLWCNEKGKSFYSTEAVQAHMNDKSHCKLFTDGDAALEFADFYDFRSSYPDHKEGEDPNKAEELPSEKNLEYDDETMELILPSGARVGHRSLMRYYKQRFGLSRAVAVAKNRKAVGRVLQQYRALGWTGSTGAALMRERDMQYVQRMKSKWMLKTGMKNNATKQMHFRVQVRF
UniProt Q96HA7: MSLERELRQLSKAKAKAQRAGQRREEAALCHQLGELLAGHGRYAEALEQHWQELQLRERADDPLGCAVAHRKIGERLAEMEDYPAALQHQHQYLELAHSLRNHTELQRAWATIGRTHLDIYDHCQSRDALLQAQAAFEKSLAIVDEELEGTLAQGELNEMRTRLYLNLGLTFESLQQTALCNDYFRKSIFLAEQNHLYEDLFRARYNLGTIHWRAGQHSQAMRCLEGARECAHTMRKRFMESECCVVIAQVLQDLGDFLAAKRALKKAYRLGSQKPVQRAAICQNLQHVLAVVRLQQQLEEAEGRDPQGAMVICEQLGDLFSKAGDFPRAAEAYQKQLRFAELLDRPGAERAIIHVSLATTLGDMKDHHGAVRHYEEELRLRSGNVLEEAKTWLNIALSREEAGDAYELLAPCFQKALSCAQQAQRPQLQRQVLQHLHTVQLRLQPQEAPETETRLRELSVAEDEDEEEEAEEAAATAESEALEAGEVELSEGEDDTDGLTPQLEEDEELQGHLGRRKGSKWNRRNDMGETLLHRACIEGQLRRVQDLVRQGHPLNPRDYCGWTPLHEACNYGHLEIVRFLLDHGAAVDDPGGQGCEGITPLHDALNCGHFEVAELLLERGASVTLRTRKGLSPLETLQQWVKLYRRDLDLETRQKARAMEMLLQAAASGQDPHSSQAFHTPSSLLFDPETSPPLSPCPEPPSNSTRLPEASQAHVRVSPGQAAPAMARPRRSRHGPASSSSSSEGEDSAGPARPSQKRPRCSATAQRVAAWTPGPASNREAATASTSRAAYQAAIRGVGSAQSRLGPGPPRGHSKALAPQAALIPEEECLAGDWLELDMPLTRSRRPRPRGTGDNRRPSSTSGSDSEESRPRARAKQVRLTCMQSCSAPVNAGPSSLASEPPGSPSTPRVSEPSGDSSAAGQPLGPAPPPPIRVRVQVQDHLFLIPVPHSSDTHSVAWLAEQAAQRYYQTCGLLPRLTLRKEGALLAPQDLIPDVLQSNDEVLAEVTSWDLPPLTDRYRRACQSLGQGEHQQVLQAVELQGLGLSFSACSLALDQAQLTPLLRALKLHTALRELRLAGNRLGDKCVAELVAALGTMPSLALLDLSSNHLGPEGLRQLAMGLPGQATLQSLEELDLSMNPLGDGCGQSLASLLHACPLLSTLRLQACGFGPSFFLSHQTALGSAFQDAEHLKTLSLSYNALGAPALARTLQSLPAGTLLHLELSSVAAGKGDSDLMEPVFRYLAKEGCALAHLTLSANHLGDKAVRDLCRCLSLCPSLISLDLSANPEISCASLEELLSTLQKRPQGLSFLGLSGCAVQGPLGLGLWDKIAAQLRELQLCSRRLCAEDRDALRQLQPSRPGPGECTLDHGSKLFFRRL
UniProt Q96FK6: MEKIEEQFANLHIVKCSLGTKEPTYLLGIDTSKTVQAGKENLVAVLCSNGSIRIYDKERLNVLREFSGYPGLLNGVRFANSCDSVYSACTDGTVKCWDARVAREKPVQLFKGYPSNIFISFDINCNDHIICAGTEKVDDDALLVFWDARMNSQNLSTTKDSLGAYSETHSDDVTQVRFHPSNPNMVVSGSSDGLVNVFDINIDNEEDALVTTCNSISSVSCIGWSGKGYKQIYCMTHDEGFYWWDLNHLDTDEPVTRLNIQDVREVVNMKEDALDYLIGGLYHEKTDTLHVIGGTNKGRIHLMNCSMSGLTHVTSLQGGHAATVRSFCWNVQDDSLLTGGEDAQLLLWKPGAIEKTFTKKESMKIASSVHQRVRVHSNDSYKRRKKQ
UniProt Q96BW5: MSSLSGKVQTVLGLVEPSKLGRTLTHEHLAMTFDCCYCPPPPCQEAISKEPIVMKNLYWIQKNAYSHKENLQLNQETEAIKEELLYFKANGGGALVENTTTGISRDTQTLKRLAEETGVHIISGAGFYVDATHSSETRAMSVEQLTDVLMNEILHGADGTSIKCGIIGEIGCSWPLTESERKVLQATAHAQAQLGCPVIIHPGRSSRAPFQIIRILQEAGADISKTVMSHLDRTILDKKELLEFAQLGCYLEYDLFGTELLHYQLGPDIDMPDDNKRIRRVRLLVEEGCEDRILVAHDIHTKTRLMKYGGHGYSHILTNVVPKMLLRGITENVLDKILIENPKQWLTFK
UniProt Q96N66: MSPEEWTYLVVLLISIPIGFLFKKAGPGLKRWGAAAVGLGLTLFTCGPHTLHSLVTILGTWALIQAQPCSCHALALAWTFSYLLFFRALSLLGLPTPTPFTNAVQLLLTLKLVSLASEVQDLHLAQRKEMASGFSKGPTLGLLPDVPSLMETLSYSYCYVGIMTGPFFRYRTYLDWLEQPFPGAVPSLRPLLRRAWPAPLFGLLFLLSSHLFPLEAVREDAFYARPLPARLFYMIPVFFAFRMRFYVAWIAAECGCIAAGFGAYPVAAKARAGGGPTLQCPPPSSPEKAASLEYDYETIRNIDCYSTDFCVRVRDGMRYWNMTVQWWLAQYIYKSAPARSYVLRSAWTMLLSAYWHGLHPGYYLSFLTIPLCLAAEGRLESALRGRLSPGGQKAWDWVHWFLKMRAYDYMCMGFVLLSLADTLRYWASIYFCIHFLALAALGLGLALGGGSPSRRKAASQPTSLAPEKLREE
UniProt Q96AQ6: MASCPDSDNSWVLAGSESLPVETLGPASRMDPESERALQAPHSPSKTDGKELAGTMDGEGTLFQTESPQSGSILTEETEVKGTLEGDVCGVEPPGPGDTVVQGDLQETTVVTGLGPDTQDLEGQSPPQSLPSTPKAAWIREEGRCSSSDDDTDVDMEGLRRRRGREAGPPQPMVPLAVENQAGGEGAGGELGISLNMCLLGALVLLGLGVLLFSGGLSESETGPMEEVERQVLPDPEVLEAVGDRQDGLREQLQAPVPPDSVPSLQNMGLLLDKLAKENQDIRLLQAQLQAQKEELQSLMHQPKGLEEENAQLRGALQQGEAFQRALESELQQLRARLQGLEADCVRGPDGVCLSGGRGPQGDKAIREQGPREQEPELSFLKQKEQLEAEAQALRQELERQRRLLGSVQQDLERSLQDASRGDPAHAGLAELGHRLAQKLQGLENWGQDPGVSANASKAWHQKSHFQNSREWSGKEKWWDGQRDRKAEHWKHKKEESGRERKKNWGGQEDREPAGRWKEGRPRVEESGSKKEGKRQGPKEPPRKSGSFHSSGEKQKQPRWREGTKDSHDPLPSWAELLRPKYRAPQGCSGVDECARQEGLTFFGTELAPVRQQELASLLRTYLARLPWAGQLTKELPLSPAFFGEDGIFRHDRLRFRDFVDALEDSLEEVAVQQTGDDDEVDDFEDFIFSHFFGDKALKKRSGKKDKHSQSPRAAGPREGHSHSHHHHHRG
UniProt Q96IX5: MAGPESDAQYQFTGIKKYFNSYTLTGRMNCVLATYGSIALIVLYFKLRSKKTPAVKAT
UniProt Q96NC0: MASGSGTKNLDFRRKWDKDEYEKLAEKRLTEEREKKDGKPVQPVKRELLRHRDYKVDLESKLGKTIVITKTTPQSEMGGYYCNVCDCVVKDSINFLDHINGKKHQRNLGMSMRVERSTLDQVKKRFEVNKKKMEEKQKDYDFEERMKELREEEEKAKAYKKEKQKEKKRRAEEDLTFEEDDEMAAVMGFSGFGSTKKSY
UniProt Q96MX3: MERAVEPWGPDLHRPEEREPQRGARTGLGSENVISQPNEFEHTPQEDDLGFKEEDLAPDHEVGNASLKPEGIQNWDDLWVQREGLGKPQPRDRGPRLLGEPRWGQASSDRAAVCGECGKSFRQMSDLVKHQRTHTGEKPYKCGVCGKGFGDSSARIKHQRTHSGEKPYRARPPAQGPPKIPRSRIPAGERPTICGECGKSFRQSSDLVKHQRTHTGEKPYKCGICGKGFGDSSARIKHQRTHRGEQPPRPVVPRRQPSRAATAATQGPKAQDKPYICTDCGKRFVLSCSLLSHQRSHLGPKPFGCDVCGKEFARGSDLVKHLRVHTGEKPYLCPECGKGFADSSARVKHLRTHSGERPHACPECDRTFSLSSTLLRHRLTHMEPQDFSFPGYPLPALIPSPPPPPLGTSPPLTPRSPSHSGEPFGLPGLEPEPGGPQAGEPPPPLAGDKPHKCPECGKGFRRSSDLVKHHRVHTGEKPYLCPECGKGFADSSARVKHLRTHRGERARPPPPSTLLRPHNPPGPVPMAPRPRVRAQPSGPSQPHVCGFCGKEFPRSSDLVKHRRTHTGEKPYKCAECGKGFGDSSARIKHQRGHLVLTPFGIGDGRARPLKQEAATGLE
UniProt Q96B26, whole entry: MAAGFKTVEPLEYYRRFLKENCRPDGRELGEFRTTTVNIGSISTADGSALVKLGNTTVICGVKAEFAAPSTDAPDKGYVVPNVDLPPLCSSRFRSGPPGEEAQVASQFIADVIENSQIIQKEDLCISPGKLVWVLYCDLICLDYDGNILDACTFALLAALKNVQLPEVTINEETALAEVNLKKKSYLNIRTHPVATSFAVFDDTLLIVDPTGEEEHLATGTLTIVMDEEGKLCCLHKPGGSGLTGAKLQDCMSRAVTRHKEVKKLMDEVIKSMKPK
UniProt Q96E11: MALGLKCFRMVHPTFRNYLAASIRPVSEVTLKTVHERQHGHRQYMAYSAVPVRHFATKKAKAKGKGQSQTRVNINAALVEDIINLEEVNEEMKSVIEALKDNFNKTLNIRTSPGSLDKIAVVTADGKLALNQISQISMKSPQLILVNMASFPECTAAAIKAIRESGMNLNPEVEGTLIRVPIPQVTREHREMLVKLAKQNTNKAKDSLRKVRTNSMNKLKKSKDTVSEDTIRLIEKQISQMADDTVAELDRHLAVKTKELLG

Compound: Nc1ncnc2c1ncn2[C@@H]1O[C@H](COP(=O)(O)OP(=O)(O)NP(=O)(O)O)[C@@H](O)[C@H]1O [adenylyl imidodiphosphate]
Test: NP40-soluble protein abundance relative to vehicle (solubility fold change) (ratio); higher = more soluble protein in presence of AMP-PNP
Summary of the method: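 Values are fold changes against the detergent-processed vehicle, based on vsn-normalised intensities. Jurkat crude lysate was treated at eight concentrations from 0.1 to 10 mM (10 min at room temperature, then 3 min at 37 °C), solubilised with 0.8% NP40 and benzonase, ultracentrifuged and analysed by TMT-labelled LC-MS/MS over three independent experiments.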

Work on MRPS24 (UniProt Q96EL2) yielded an NP40-soluble protein abundance (concentration: 0.1mM) of 1.08 ± 0.048 and an NP40-soluble protein abundance (concentration: 0.5mM) of 1.04 ± 0.033.

UniProt Q96II8 and related entries showed an NP40-soluble protein abundance (concentration: 0.1mM) of 1.003 ± 0.0085 and an NP40-soluble protein abundance (concentration: 0.5mM) of 1.01 ± 0.021.

With DHTKD1 (UniProt Q96HY7) the NP40-soluble protein abundance (concentration: 0.1mM) was 1.01 ± 0.024 and the NP40-soluble protein abundance (concentration: 0.5mM) was 0.979 ± 0.071.

In the case of USP13 (UniProt Q92995), the NP40-soluble protein abundance (concentration: 0.1mM) is reported as 1 ± 0.015 and the NP40-soluble protein abundance (concentration: 0.5mM) is reported as 0.9817 ± 0.0046.

In the case of FUBP3 (UniProt Q96I24), the NP40-soluble protein abundance (concentration: 0.1mM) is reported as 0.992 ± 0.034 and the NP40-soluble protein abundance (concentration: 0.5mM) is reported as 0.994 ± 0.038.

With UniProt Q96L73 and related entries the NP40-soluble protein abundance (concentration: 0.1mM) was 0.9905 ± 0.0073 and the NP40-soluble protein abundance (concentration: 0.5mM) was 0.997 ± 0.043.

SYAP1 (UniProt Q96A49) gave an NP40-soluble protein abundance (concentration: 0.1mM) of 0.957 ± 0.028 and an NP40-soluble protein abundance (concentration: 0.5mM) of 0.998 ± 0.048.

In the case of MSI2 (UniProt Q96DH6), the NP40-soluble protein abundance (concentration: 0.1mM) is reported as 1.01 ± 0.022 and the NP40-soluble protein abundance (concentration: 0.5mM) is reported as 1.03 ± 0.046.

In the case of UniProt Q96JM7 and related entries, the NP40-soluble protein abundance (concentration: 0.1mM) is reported as 0.976 ± 0.026 and the NP40-soluble protein abundance (concentration: 0.5mM) is reported as 0.957 ± 0.048.

Target UniProt Q969P0 and related entries has an NP40-soluble protein abundance (concentration: 0.1mM) of 1.009 ± 0.0043 and an NP40-soluble protein abundance (concentration: 0.5mM) of 0.992 ± 0.042.

FAHD2A (UniProt Q96GK7) gave an NP40-soluble protein abundance (concentration: 0.1mM) of 1.02 ± 0.023 and an NP40-soluble protein abundance (concentration: 0.5mM) of 1.02 ± 0.048.

PPP1R10 (UniProt Q96QC0) was tested, and the NP40-soluble protein abundance (concentration: 0.1mM) was 0.999 ± 0.021 and the NP40-soluble protein abundance (concentration: 0.5mM) was 0.996 ± 0.027.

UniProt Q93050 and related entries gave an NP40-soluble protein abundance (concentration: 0.1mM) of 0.996 ± 0.021 and an NP40-soluble protein abundance (concentration: 0.5mM) of 0.953 ± 0.047.

UniProt Q96F07-2 was tested, and the NP40-soluble protein abundance (concentration: 0.1mM) was 1.03 ± 0.028 and the NP40-soluble protein abundance (concentration: 0.5mM) was 0.979 ± 0.018.

PWWP2A (UniProt Q96N64) gave an NP40-soluble protein abundance (concentration: 0.1mM) of 1.02 ± 0.028 and an NP40-soluble protein abundance (concentration: 0.5mM) of 1.02 ± 0.029.

ZNF622 (UniProt Q969S3) gave an NP40-soluble protein abundance (concentration: 0.1mM) of 0.982 ± 0.044 and an NP40-soluble protein abundance (concentration: 0.5mM) of 1.01 ± 0.046.

UniProt Q96KB5 and related entries gave an NP40-soluble protein abundance (concentration: 0.1mM) of 1.01 ± 0.037 and an NP40-soluble protein abundance (concentration: 0.5mM) of 0.979 ± 0.025.

In the case of UniProt Q93073 and related entries, the NP40-soluble protein abundance (concentration: 0.1mM) is reported as 1.006 ± 0.0075 and the NP40-soluble protein abundance (concentration: 0.5mM) is reported as 0.998 ± 0.026.

UniProt Q96QT6 and related entries showed an NP40-soluble protein abundance (concentration: 0.1mM) of 0.989 ± 0.019 and an NP40-soluble protein abundance (concentration: 0.5mM) of 1.01 ± 0.044.

Target NSL1 (UniProt Q96IY1) has an NP40-soluble protein abundance (concentration: 0.1mM) of 1.04 ± 0.053 and an NP40-soluble protein abundance (concentration: 0.5mM) of 1.01 ± 0.034.

Target “UniProt Q96Q89-3|Q96Q89 and related entries” has an NP40-soluble protein abundance (concentration: 0.1mM) of 0.986 ± 0.019 and an NP40-soluble protein abundance (concentration: 0.5mM) of 0.984 ± 0.044.

Target UniProt Q96FA3 has an NP40-soluble protein abundance (concentration: 0.1mM) of 1.02 ± 0.028 and an NP40-soluble protein abundance (concentration: 0.5mM) of 0.9763 ± 0.0034.

Target UniProt Q96HA7 and related entries has an NP40-soluble protein abundance (concentration: 0.1mM) of 0.985 ± 0.034 and an NP40-soluble protein abundance (concentration: 0.5mM) of 0.979 ± 0.03.

In the case of UniProt Q96JY6 and related entries, the NP40-soluble protein abundance (concentration: 0.1mM) is reported as 0.994 ± 0.067 and the NP40-soluble protein abundance (concentration: 0.5mM) is reported as 0.992 ± 0.045.

For UniProt Q969V3 and related entries, the NP40-soluble protein abundance (concentration: 0.1mM) was 1.02 ± 0.018 and the NP40-soluble protein abundance (concentration: 0.5mM) was 0.974 ± 0.058.

In the case of GNPNAT1 (UniProt Q96EK6), the NP40-soluble protein abundance (concentration: 0.1mM) is reported as 1 ± 0.015 and the NP40-soluble protein abundance (concentration: 0.5mM) is reported as 1.03 ± 0.039.

UniProt Q96LA8 and related entries was tested, and the NP40-soluble protein abundance (concentration: 0.1mM) was 0.98092 ± 0.00026 and the NP40-soluble protein abundance (concentration: 0.5mM) was 0.973 ± 0.0098.

For LTV1 (UniProt Q96GA3), the NP40-soluble protein abundance (concentration: 0.1mM) was 1.02 ± 0.028 and the NP40-soluble protein abundance (concentration: 0.5mM) was 1.04 ± 0.058.

EDC3 (UniProt Q96F86) showed an NP40-soluble protein abundance (concentration: 0.1mM) of 1.07 ± 0.027 and an NP40-soluble protein abundance (concentration: 0.5mM) of 1.03 ± 0.024.

In the case of WDR89 (UniProt Q96FK6), the NP40-soluble protein abundance (concentration: 0.1mM) is reported as 1.11 ± 0.087 and the NP40-soluble protein abundance (concentration: 0.5mM) is reported as 1.05 ± 0.024.

UniProt Q96BY9 and related entries gave an NP40-soluble protein abundance (concentration: 0.1mM) of 1.025 ± 0.0082 and an NP40-soluble protein abundance (concentration: 0.5mM) of 1.0238 ± 0.001.

With PTER (UniProt Q96BW5) the NP40-soluble protein abundance (concentration: 0.1mM) was 0.998 ± 0.025 and the NP40-soluble protein abundance (concentration: 0.5mM) was 0.972 ± 0.032.

In the case of UniProt Q96B36 and related entries, the NP40-soluble protein abundance (concentration: 0.1mM) is reported as 0.992 ± 0.023 and the NP40-soluble protein abundance (concentration: 0.5mM) is reported as 1 ± 0.015.

In the case of UniProt Q96N66 and related entries, the NP40-soluble protein abundance (concentration: 0.1mM) is reported as 1.03 ± 0.033 and the NP40-soluble protein abundance (concentration: 0.5mM) is reported as 0.999 ± 0.067.

UniProt Q96AQ6 and related entries was tested, and the NP40-soluble protein abundance (concentration: 0.1mM) was 1.01 ± 0.037 and the NP40-soluble protein abundance (concentration: 0.5mM) was 0.987 ± 0.025.

With KTI12 (UniProt Q96EK9) the NP40-soluble protein abundance (concentration: 0.1mM) was 0.972 ± 0.069 and the NP40-soluble protein abundance (concentration: 0.5mM) was 1 ± 0.11.

UniProt Q96HD1 and related entries gave an NP40-soluble protein abundance (concentration: 0.1mM) of 1.01 ± 0.014 and an NP40-soluble protein abundance (concentration: 0.5mM) of 0.978 ± 0.053.

In the case of PPWD1 (UniProt Q96BP3), the NP40-soluble protein abundance (concentration: 0.1mM) is reported as 1.02 ± 0.018 and the NP40-soluble protein abundance (concentration: 0.5mM) is reported as 0.983 ± 0.057.

UniProt Q96Q45 and related entries was tested, and the NP40-soluble protein abundance (concentration: 0.1mM) was 0.968 ± 0.029 and the NP40-soluble protein abundance (concentration: 0.5mM) was 0.981 ± 0.055.

Work on UniProt Q96IX5 yielded an NP40-soluble protein abundance (concentration: 0.1mM) of 1.02 ± 0.066 and an NP40-soluble protein abundance (concentration: 0.5mM) of 1.12 ± 0.15.

MRPL38 (UniProt Q96DV4) showed an NP40-soluble protein abundance (concentration: 0.1mM) of 1.03 ± 0.066 and an NP40-soluble protein abundance (concentration: 0.5mM) of 0.978 ± 0.091.

UniProt Q96JG6 was tested, and the NP40-soluble protein abundance (concentration: 0.1mM) was 0.991 ± 0.012 and the NP40-soluble protein abundance (concentration: 0.5mM) was 0.9973 ± 0.0033.

RBM17 (UniProt Q96I25) gave an NP40-soluble protein abundance (concentration: 0.1mM) of 1.03 ± 0.041 and an NP40-soluble protein abundance (concentration: 0.5mM) of 1.07 ± 0.028.

Work on UniProt Q96I15 and related entries yielded an NP40-soluble protein abundance (concentration: 0.1mM) of 1 ± 0.036 and an NP40-soluble protein abundance (concentration: 0.5mM) of 0.982 ± 0.019.

Work on UniProt Q96ME1-4 yielded an NP40-soluble protein abundance (concentration: 0.1mM) of 1.01 ± 0.016 and an NP40-soluble protein abundance (concentration: 0.5mM) of 0.984 ± 0.057.

Work on OPTN (UniProt Q96CV9) yielded an NP40-soluble protein abundance (concentration: 0.1mM) of 0.978 ± 0.017 and an NP40-soluble protein abundance (concentration: 0.5mM) of 0.997 ± 0.023.

UniProt Q96DU3 and related entries was tested, and the NP40-soluble protein abundance (concentration: 0.1mM) was 0.995 ± 0.016 and the NP40-soluble protein abundance (concentration: 0.5mM) was 0.996 ± 0.019.

Work on UniProt Q96CB8 and related entries yielded an NP40-soluble protein abundance (concentration: 0.1mM) of 0.983 ± 0.017 and an NP40-soluble protein abundance (concentration: 0.5mM) of 1.03 ± 0.053.

Target UniProt Q96BD8 has an NP40-soluble protein abundance (concentration: 0.1mM) of 0.968 ± 0.019 and an NP40-soluble protein abundance (concentration: 0.5mM) of 1 ± 0.029.

UniProt Q96FJ0 and related entries gave an NP40-soluble protein abundance (concentration: 0.1mM) of 1.01 ± 0.026 and an NP40-soluble protein abundance (concentration: 0.5mM) of 0.996 ± 0.031.

Work on UniProt Q96NC0 yielded an NP40-soluble protein abundance (concentration: 0.1mM) of 0.986 ± 0.042 and an NP40-soluble protein abundance (concentration: 0.5mM) of 1.06 ± 0.07.

For ZNF48 (UniProt Q96MX3), the NP40-soluble protein abundance (concentration: 0.1mM) was 1.02 ± 0.02 and the NP40-soluble protein abundance (concentration: 0.5mM) was 1.01 ± 0.018.

With CDK5RAP3 (UniProt Q96JB5) the NP40-soluble protein abundance (concentration: 0.1mM) was 0.998 ± 0.028 and the NP40-soluble protein abundance (concentration: 0.5mM) was 0.943 ± 0.019.

In the case of ITPKC (UniProt Q96DU7), the NP40-soluble protein abundance (concentration: 0.1mM) is reported as 0.969 ± 0.033 and the NP40-soluble protein abundance (concentration: 0.5mM) is reported as 0.963 ± 0.023.

Target EXOSC8 (UniProt Q96B26) has an NP40-soluble protein abundance (concentration: 0.1mM) of 1.03 ± 0.045 and an NP40-soluble protein abundance (concentration: 0.5mM) of 1.01 ± 0.032.

Work on UniProt Q96EE3 and related entries yielded an NP40-soluble protein abundance (concentration: 0.1mM) of 1.04 ± 0.054 and an NP40-soluble protein abundance (concentration: 0.5mM) of 1.01 ± 0.082.

UniProt Q96E11 and related entries was tested, and the NP40-soluble protein abundance (concentration: 0.1mM) was 0.984 ± 0.026 and the NP40-soluble protein abundance (concentration: 0.5mM) was 0.993 ± 0.06.

UniProt Q969Y2 and related entries gave an NP40-soluble protein abundance (concentration: 0.1mM) of 1.01 ± 0.028 and an NP40-soluble protein abundance (concentration: 0.5mM) of 0.967 ± 0.029.

With UniProt Q96P48 and related entries the NP40-soluble protein abundance (concentration: 0.1mM) was 1.03 ± 0.02 and the NP40-soluble protein abundance (concentration: 0.5mM) was 0.97 ± 0.078.
